Measurements published in the supplement of paper PMC8728848.
The list shows a part of the results.

How the values were obtained:
Test in all cases: glycan array binding signal (z-score within array); higher = stronger binding
Conditions in all cases: glycan notation: IUPAC condensed, linker removed
[1] = biological target: GlcNAc(b1-2)Gal(b1-3)GalNAc
Outline: (§1)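 The binding signal is a Z-score computed within each array and averaged over linkers. Arrays of the same protein sequence at different concentrations or buffers were also averaged together. Data originate from 3228 arrays in the Consortium for Functional Glycomics database, kept only where the protein sequence was available.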

[2] = biological target: GlcNAc(b1-2)Man(a1-3)[GlcNAc(b1-2)Man(a1-6)]Man(b1-4)GlcNAc(b1-4)GlcNAc
Outline: as §1

[3] = biological target: GlcNAc(b1-2)Man(a1-3)[GlcNAc(b1-2)Man(a1-6)]Man(b1-4)GlcNAc(b1-4)[Fuc(a1-6)]GlcNAc
Outline: as §1

[4] = biological target: GlcNAc(b1-2)Man(a1-3)[GlcNAc(b1-4)][GlcNAc(b1-2)Man(a1-6)]Man(b1-4)GlcNAc(b1-4)GlcNAc
Outline: as §1

[5] = biological target: GlcNAc(b1-2)Man(a1-3)[GlcNAc(b1-4)][GlcNAc(b1-2)Man(a1-6)]Man(b1-4)GlcNAc(b1-4)[Fuc(a1-6)]GlcNAc
Outline: as §1

[6] = biological target: GlcNAc(b1-2)[GlcNAc(b1-4)]Man(a1-3)[GlcNAc(b1-2)Man(a1-6)]Man(b1-4)GlcNAc(b1-4)GlcNAc
Outline: as §1

[7] = biological target: GlcNAc(b1-2)[GlcNAc(b1-4)]Man(a1-3)[GlcNAc(b1-4)][GlcNAc(b1-2)Man(a1-6)]Man(b1-4)GlcNAc(b1-4)GlcNAc
Outline: as §1

[8] = biological target: GlcNAc(b1-2)[GlcNAc(b1-4)]Man(a1-3)[GlcNAc(b1-4)][GlcNAc(b1-2)[GlcNAc(b1-6)]Man(a1-6)]Man(b1-4)GlcNAc(b1-4)GlcNAc
Outline: as §1

[9] = biological target: GlcNAc(b1-2)[GlcNAc(b1-4)]Man(a1-3)[GlcNAc(b1-4)][GlcNAc(b1-2)[GlcNAc(b1-6)]Man(a1-6)]Man(b1-4)GlcNAc(b1-4)[Fuc(a1-6)]GlcNAc
Outline: as §1

[10] = biological target: GlcNAc(b1-2)[GlcNAc(b1-6)]Man(a1-6)[GlcNAc(b1-2)Man(a1-3)]Man(b1-4)GlcNAc(b1-4)GlcNAc
Outline: as §1

[11] = biological target: GlcNAc(b1-2)[GlcNAc(b1-6)]Man(a1-6)[GlcNAc(b1-2)Man(a1-3)]Man(b1-4)GlcNAc(b1-4)[Fuc(a1-6)]GlcNAc
Outline: as §1

[12] = biological target: GlcNAc(b1-2)[GlcNAc(b1-6)]Man(a1-6)[GlcNAc(b1-4)][GlcNAc(b1-2)Man(a1-3)]Man(b1-4)GlcNAc(b1-4)GlcNAc
Outline: as §1

[13] = biological target: GlcNAc(b1-3)Fuc
Outline: as §1

[14] = biological target: GlcNAc(b1-3)Gal
Outline: as §1

[15] = biological target: GlcNAc(b1-3)Gal(b1-3)GalNAc
Outline: as §1

[16] = biological target: GlcNAc(b1-3)Gal(b1-4)Glc
Outline: as §1

[17] = biological target: GlcNAc(b1-3)Gal(b1-4)GlcNAc
Outline: as §1

[18] = biological target: GlcNAc(b1-3)Gal(b1-4)GlcNAc(b1-2)Man(a1-3)[GlcNAc(b1-3)Gal(b1-4)GlcNAc(b1-2)Man(a1-6)]Man(b1-4)GlcNAc(b1-4)GlcNAc
Outline: as §1

[19] = biological target: GlcNAc(b1-3)Gal(b1-4)GlcNAc(b1-2)Man(a1-3)[GlcNAc(b1-3)Gal(b1-4)GlcNAc(b1-2)Man(a1-6)]Man(b1-4)GlcNAc(b1-4)[Fuc(a1-6)]GlcNAc
Outline: as §1

[20] = biological target: GlcNAc(b1-3)Gal(b1-4)GlcNAc(b1-2)[GlcNAc(b1-3)Gal(b1-4)GlcNAc(b1-6)]Man(a1-6)[GlcNAc(b1-3)Gal(b1-4)GlcNAc(b1-2)Man(a1-3)]Man(b1-4)GlcNAc(b1-4)GlcNAc
Outline: as §1

[21] = biological target: GlcNAc(b1-3)Gal(b1-4)GlcNAc(b1-3)Gal(b1-4)GlcNAc
Outline: as §1

[22] = biological target: GlcNAc(b1-3)Gal(b1-4)GlcNAc(b1-3)Gal(b1-4)GlcNAc(b1-2)Man(a1-3)[GlcNAc(b1-3)Gal(b1-4)GlcNAc(b1-3)Gal(b1-4)GlcNAc(b1-2)Man(a1-6)]Man(b1-4)GlcNAc(b1-4)GlcNAc
Outline: as §1

[23] = biological target: GlcNAc(b1-3)Gal(b1-4)GlcNAc(b1-3)Gal(b1-4)GlcNAc(b1-2)Man(a1-3)[GlcNAc(b1-3)Gal(b1-4)GlcNAc(b1-3)Gal(b1-4)GlcNAc(b1-2)Man(a1-6)]Man(b1-4)GlcNAc(b1-4)[Fuc(a1-6)]GlcNAc
Outline: as §1

[24] = biological target: GlcNAc(b1-3)Gal(b1-4)GlcNAc(b1-3)Gal(b1-4)GlcNAc(b1-2)[GlcNAc(b1-3)Gal(b1-4)GlcNAc(b1-3)Gal(b1-4)GlcNAc(b1-6)]Man(a1-6)[GlcNAc(b1-3)Gal(b1-4)GlcNAc(b1-3)Gal(b1-4)GlcNAc(b1-2)Man(a1-3)]Man(b1-4)GlcNAc(b1-4)[Fuc(a1-6)]GlcNAc
Outline: as §1

[25] = biological target: GlcNAc(b1-3)Gal(b1-4)GlcNAc(b1-3)Gal(b1-4)GlcNAc(b1-3)Gal(b1-4)GlcNAc(b1-2)Man(a1-3)[GlcNAc(b1-3)Gal(b1-4)GlcNAc(b1-3)Gal(b1-4)GlcNAc(b1-3)Gal(b1-4)GlcNAc(b1-2)Man(a1-6)]Man(b1-4)GlcNAc(b1-4)GlcNAc
Outline: as §1

[26] = biological target: GlcNAc(b1-3)Gal(b1-4)GlcNAc(b1-3)Gal(b1-4)GlcNAc(b1-3)Gal(b1-4)GlcNAc(b1-2)Man(a1-3)[GlcNAc(b1-3)Gal(b1-4)GlcNAc(b1-3)Gal(b1-4)GlcNAc(b1-3)Gal(b1-4)GlcNAc(b1-2)Man(a1-6)]Man(b1-4)GlcNAc(b1-4)[Fuc(a1-6)]GlcNAc
Outline: as §1

[27] = biological target: GlcNAc(b1-3)Gal(b1-4)GlcNAc(b1-3)Gal(b1-4)GlcNAc(b1-3)Gal(b1-4)GlcNAc(b1-2)[GlcNAc(b1-3)Gal(b1-4)GlcNAc(b1-3)Gal(b1-4)GlcNAc(b1-3)Gal(b1-4)GlcNAc(b1-6)]Man(a1-6)[GlcNAc(b1-3)Gal(b1-4)GlcNAc(b1-3)Gal(b1-4)GlcNAc(b1-3)Gal(b1-4)GlcNAc(b1-2)Man(a1-3)]Man(b1-4)GlcNAc(b1-4)[Fuc(a1-6)]GlcNAc
Outline: as §1

[28] = biological target: GlcNAc(b1-3)Gal(b1-4)GlcNAc(b1-3)Gal(b1-4)GlcNAc(b1-3)Gal(b1-4)GlcNAc(b1-3)Gal(b1-4)GlcNAc(b1-2)Man(a1-3)[GlcNAc(b1-3)Gal(b1-4)GlcNAc(b1-3)Gal(b1-4)GlcNAc(b1-3)Gal(b1-4)GlcNAc(b1-3)Gal(b1-4)GlcNAc(b1-2)Man(a1-6)]Man(b1-4)GlcNAc(b1-4)GlcNAc
Outline: as §1

[29] = biological target: GlcNAc(b1-3)Gal(b1-4)GlcNAc(b1-3)Gal(b1-4)GlcNAc(b1-3)Gal(b1-4)GlcNAc(b1-3)Gal(b1-4)GlcNAc(b1-2)Man(a1-3)[GlcNAc(b1-3)Gal(b1-4)GlcNAc(b1-3)Gal(b1-4)GlcNAc(b1-3)Gal(b1-4)GlcNAc(b1-3)Gal(b1-4)GlcNAc(b1-2)Man(a1-6)]Man(b1-4)GlcNAc(b1-4)[Fuc(a1-6)]GlcNAc
Outline: as §1

[30] = biological target: GlcNAc(b1-3)Gal(b1-4)GlcNAc(b1-3)Gal(b1-4)GlcNAc(b1-3)Gal(b1-4)GlcNAc(b1-3)Gal(b1-4)GlcNAc(b1-2)[GlcNAc(b1-3)Gal(b1-4)GlcNAc(b1-3)Gal(b1-4)GlcNAc(b1-3)Gal(b1-4)GlcNAc(b1-3)Gal(b1-4)GlcNAc(b1-6)]Man(a1-6)[GlcNAc(b1-3)Gal(b1-4)GlcNAc(b1-3)Gal(b1-4)GlcNAc(b1-3)Gal(b1-4)GlcNAc(b1-3)Gal(b1-4)GlcNAc(b1-2)Man(a1-3)]Man(b1-4)GlcNAc(b1-4)[Fuc(a1-6)]GlcNAc
Outline: as §1

[31] = biological target: GlcNAc(b1-3)Gal(b1-4)GlcNAc(b1-3)Gal(b1-4)GlcNAc(b1-3)GalNAc
Outline: as §1

[32] = biological target: GlcNAc(b1-3)Gal(b1-4)GlcNAc(b1-3)GalNAc
Outline: as §1

[33] = biological target: GlcNAc(b1-3)Gal(b1-4)GlcNAc(b1-3)[GlcNAc(b1-3)Gal(b1-4)GlcNAc(b1-3)]GalNAc
Outline: as §1

[34] = biological target: GlcNAc(b1-3)Gal(b1-4)GlcNAc(b1-6)[Gal(b1-3)]GalNAc
Outline: as §1

[35] = biological target: GlcNAc(b1-3)Gal(b1-4)GlcNAc(b1-6)[GlcNAc(b1-3)Gal(b1-3)]GalNAc
Outline: as §1

[36] = biological target: GlcNAc(b1-3)Gal(b1-4)GlcNAc(b1-6)[GlcNAc(b1-3)]Gal(b1-4)GlcNAc
Outline: as §1

[37] = biological target: GlcNAc(b1-3)GalNAc
Outline: as §1

[38] = biological target: GlcNAc(b1-3)Man
Outline: as §1

[39] = biological target: GlcNAc(b1-3)[GlcNAc(b1-4)][GlcNAc(b1-6)]GlcNAc
Outline: as §1

[40] = biological target: GlcNAc(b1-3)[GlcNAc(b1-6)]Gal(b1-4)GlcNAc
Outline: as §1

[41] = biological target: GlcNAc(b1-3)[GlcNAc(b1-6)]GalNAc
Outline: as §1

[42] = biological target: GlcNAc(b1-4)Gal(b1-4)GlcNAc
Outline: as §1

[43] = biological target: GlcNAc(b1-4)GlcNAc
Outline: as §1

[44] = biological target: GlcNAc(b1-4)GlcNAc(b1-4)GlcNAc
Outline: as §1

[45] = biological target: GlcNAc(b1-4)GlcNAc(b1-4)GlcNAc(b1-4)GlcNAc(b1-4)GlcNAc
Outline: as §1

B1: SynCAM (Mus musculus) (protein)
chain: MASAVLPSGSQCAAAAAVAAAAAPPGLRLRLLLLLLSAAALIPTGDGQNLFTKDVTVIEGEVATISCQVNKSDDSVIQLLNPNRQTIYFRDFRPLKDSRFQLLNFSSSELKVSLTNVSISDEGRYFCQLYTDPPQESYTTITVLVPPRNLMIDIQKDTAVEGEEIEVNCTAMASKPATTIRWFKGNKELKGKSEVEEWSDMYTVTSQLMLKVHKEDDGVPVICQVEHPAVTGNLQTQRYLEVQYKPQVHIQMTYPLQGLTREGDAFELTCEAIGKPQPVMVTWVRVDDEMPQHAVLSGPNLFINNLNKTDNGTYRCEASNIVGKAHSDYMLYVYDPPTTIPPP
[1]
  glycan array binding signal (z-score): -1.15
[2]
  glycan array binding signal (z-score): -0.116
[3]
  glycan array binding signal (z-score): -0.477
[4]
  glycan array binding signal (z-score): 0.08
[5]
  glycan array binding signal (z-score): -1.06
[6]
  glycan array binding signal (z-score): 0.069
[7]
  glycan array binding signal (z-score): 0.664
[8]
  glycan array binding signal (z-score): -0.132
[9]
  glycan array binding signal (z-score): 0.102
[10]
  glycan array binding signal (z-score): -0.446
[11]
  glycan array binding signal (z-score): -0.466
[12]
  glycan array binding signal (z-score): -0.782
[13]
  glycan array binding signal (z-score): -0.241
[14]
  glycan array binding signal (z-score): -0.269
[15]
  glycan array binding signal (z-score): 0.922
[16]
  glycan array binding signal (z-score): -0.32
[17]
  glycan array binding signal (z-score): -0.123
[18]
  glycan array binding signal (z-score): -0.044
[19]
  glycan array binding signal (z-score): -0.382
[20]
  glycan array binding signal (z-score): 1.72
[21]
  glycan array binding signal (z-score): -0.618
[22]
  glycan array binding signal (z-score): 1.07
[23]
  glycan array binding signal (z-score): 1.01
[24]
  glycan array binding signal (z-score): 1.76
[25]
  glycan array binding signal (z-score): 0.618
[26]
  glycan array binding signal (z-score): 0.941
[27]
  glycan array binding signal (z-score): -0.072
[28]
  glycan array binding signal (z-score): -0.581
[29]
  glycan array binding signal (z-score): 1.8
[30]
  glycan array binding signal (z-score): 1.86
[31]
  glycan array binding signal (z-score): -0.165
[32]
  glycan array binding signal (z-score): -0.428
[33]
  glycan array binding signal (z-score): 0.925
[34]
  glycan array binding signal (z-score): -0.753
[35]
  glycan array binding signal (z-score): 0.804
[36]
  glycan array binding signal (z-score): -1.19
[37]
  glycan array binding signal (z-score): -0.668
[38]
  glycan array binding signal (z-score): 0.179
[39]
  glycan array binding signal (z-score): 2.58
[40]
  glycan array binding signal (z-score): 1.34
[41]
  glycan array binding signal (z-score): -0.659
[42]
  glycan array binding signal (z-score): 0.326
[43]
  glycan array binding signal (z-score): -1.17
[44]
  glycan array binding signal (z-score): -0.747
[45]
  glycan array binding signal (z-score): -0.79
